Data reported in patent publication US6268395A, “Phorbol derivatives having antivirus activity” (Lead Chemical Co., Ltd., priority 1999, dated 2001).
Some results were stated once for a whole list of compounds, not compound by compound.

System: protein kinase C (PKC)
Assay type: biochemical, mouse
Settings: 10 ng/mL (standard concentration)
Protocol: After addition of 0.55 nM [γ-^32 P] ATP (50×10^3 cpm/nmol), the reaction mixture was mixed and allowed to be kept at 37° C. for 30 minutes. Then the reactions were terminated by the addition of 10 μl of ice-cold stop reagent. Aliquots of 35 μL were transferred to the center of peptide binding discs. After 10 minutes, the discs were washed two times with 75 mM orthophosphoric acid. The activity of ^32 P-labeled samples was counted in 10/mL of a scintillation fluid for 1 minute. […] Blank (in the absence of PKC) and control (in the absence of TPA or tested samples) were also carried out. One unit of PKC was defined as that amount of enzyme, which incorporated 1 nmol of phosphate from ATP into its substrate, peptide, per minute under the assay conditions, described above.

Compound | PKC activation (in words)
CCCCC/C=C\C/C=C\CCCCCCCC(=O)OCC1=C[C@H]2[C@@H]3C(C)(C)[C@]3(OC(C)=O)[C@H](OC(C)=O)[C@@H](C)[C@]2(O)[C@@H]2C=C(C)C(=O)[C@@]2(O)C1 [Compound 13, Phorbol-12,13-diacetate-20-linoleate] | did not activate PKC
CC1=C[C@@H]2[C@@H](CC(CO)=C[C@H]3[C@@H]4C(C)(C)[C@]4(O)[C@H](O)[C@@H](C)[C@]23O)C1=O [Compound 20, 4-Deoxy-4α-phorbol] | did not activate PKC
CC(=O)OCC1=C[C@H]2[C@@H]3C(C)(C)[C@]3(OC(C)=O)[C@H](OC(C)=O)[C@@H](C)[C@]2(O)[C@@H]2C=C(C)C(=O)[C@]2(O)C1 [Compound 21, 4α-Phorbol-12,13,20-triacetate] | did not activate PKC
CC1=C[C@H]2[C@@]3(O)[C@H](C)[C@@H](O)[C@]4(O)[C@H]([C@@H]3C=C(CO)C[C@@]2(O)C1=O)C4(C)C [Compound 19, 4α-Phorbol] | did not activate PKC
CC(=O)OCC1=C[C@H]2[C@@H]3C(C)(C)[C@]3(OC(C)=O)[C@H](OC(C)=O)[C@@H](C)[C@]2(O)[C@@H]2C=C(C)[C@H](O)[C@@]2(O)C1 [Compound 15, 3-Deoxo-3β-hydroxyphorbol-12,13,20-triacetate] | did not activate PKC
CCCCCCCCCCCCCC(=O)O[C@@H]1[C@@H](C)[C@@]2(O)[C@@H](C=C(COC(C)=O)C[C@]3(O)C(=O)C(C)=C[C@@H]23)[C@@H]2C(C)(C)[C@]12OC(C)=O [Compound 14, 12-O-Tetradecanoylphorbol-13,20-diacetate] | did not activate PKC
